Source: the supplement of paper PMC4604168 (melanoma cell lines)
The list shows a part of the results. Single values are uncertain, as repeats are few or missing.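 Cells were imaged in 1,536-well plates, and nuclei stained with an antibody against cleaved PARP were counted against all DNA-stained nuclei to give the apoptosis fraction. Screening doses were chosen to leave most cells alive, and resting and induced cleaved-PARP levels differ strongly between cell lines.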

What follows are compounds tested on IST-MEL1 (assay: cleaved PARP positive nuclei fraction relative to DMSO control; melanoma cells; higher = more apoptosis). Settings: library dose: low library concentration; 72 h.

Going from CCc1ccc(CCOc2ccc(CC3SC(=O)NC3=O)cc2)nc1 (stereo unspecified) [pioglitazone] + CCCCCCCCCCCC1=C(O)C(=O)C=C(O)C1=O [Embelin] (first compound 2 µM, partner dose 1.2 µM) to COc1cc2ncnc(Nc3ccc(Oc4ccccc4)cc3)c2cc1OC + O=C(O)C(=O)Nc1sc2c(c1C(=O)O)CCNC2 [TCS401] (first compound 2 µM, partner dose 1.66667 µM), the “cleaved PARP positive nuclei fraction” value rises from 56.6% to 97.2%.

First: CN(C)S(=O)(=O)c1ccc2c(c1)/C(=C/c1cc3c([nH]1)CCCC3)C(=O)N2 + c1cc(-c2cnn3cc(-c4ccc(OCCN5CCCCC5)cc4)cnc23)ccn1 [Dorsomorphin] (first compound 0.4 µM, partner dose 0.4 µM)
Second: COc1ccc(-c2ccc3c(N4CCOCC4)nc(N4C[C@@H](C)O[C@@H](C)C4)nc3n2)cc1CO + Oc1nc(-c2ccc(C(F)(F)F)cc2)nc2c1CSCC2 [XAV939] (first compound 0.02 µM, partner dose 2 µM)
The “cleaved PARP positive nuclei fraction” value of the first is lower: 86% for the first, 131% for the second.

Compared with O=C(Nc1ccccc1)c1cc([N+](=O)[O-])ccc1Cl + O=c1cc(-c2cccc3c2Sc2ccccc2S3)oc(N2CCOCC2)c1 [KU55933] (first compound 2 µM, partner dose 1 µM), CN(NC(=O)CC(=O)NN(C)C(=S)c1ccccc1)C(=S)c1ccccc1 + CCc1ccc(CCOc2ccc(CC3SC(=O)NC3=O)cc2)nc1 [pioglitazone] (first compound 0.006 µM, partner dose 2 µM) is higher in “cleaved PARP positive nuclei fraction” value: 87.7% for the first, 246% for the second.
